Laboratory results: patent US10227357B2, “Compounds and methods for kinase modulation, and indications therefor” (Plexxikon Inc., priority 2012, dated 2019)
Some of these results come from one statement about several compounds together.

Sequences of proteins named here, by UniProt entry; tags and fusion partners are left off.
UniProt P10721, whole entry D816V: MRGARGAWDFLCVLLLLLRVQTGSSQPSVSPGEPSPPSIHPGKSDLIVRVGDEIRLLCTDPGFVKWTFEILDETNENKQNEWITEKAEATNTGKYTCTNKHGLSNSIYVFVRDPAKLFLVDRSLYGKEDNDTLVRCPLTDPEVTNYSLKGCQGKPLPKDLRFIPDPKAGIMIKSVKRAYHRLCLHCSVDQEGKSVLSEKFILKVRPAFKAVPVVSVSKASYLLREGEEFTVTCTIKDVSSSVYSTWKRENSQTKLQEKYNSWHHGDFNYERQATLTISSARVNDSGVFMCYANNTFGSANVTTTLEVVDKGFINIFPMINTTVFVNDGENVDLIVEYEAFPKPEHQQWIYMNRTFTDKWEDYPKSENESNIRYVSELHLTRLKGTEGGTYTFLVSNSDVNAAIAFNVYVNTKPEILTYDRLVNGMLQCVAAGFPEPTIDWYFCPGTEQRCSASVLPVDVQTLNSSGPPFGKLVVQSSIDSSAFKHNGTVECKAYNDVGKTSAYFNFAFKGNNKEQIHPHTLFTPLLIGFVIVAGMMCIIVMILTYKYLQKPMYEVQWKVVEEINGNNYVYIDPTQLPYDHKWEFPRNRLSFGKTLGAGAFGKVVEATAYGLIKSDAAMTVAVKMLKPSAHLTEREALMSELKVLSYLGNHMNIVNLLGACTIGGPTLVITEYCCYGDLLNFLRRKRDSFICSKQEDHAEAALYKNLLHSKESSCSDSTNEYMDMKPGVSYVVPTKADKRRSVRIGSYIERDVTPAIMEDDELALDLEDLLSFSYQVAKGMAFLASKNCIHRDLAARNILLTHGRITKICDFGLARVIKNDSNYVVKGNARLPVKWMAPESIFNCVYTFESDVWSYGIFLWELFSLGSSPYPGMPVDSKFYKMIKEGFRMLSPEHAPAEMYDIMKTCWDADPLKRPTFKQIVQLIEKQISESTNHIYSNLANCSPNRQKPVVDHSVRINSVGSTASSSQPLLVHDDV

target: BaF3-FL KIT D816V cells (Homo sapiens, UniProt P10721, D816V, cells depend on it, form not given); test: Cell-based assay of c-Kit mutant kinase activity, BaF3-FL KIT D816V cell proliferation (ATPlite); details: in at least one of the c-kit cell assays described in Example 28 (BaF3-FL KIT D816V or BaF3-FL KIT V560G/D816V); read-out: IC50 (the source's name)

SMILES	GI50
Cc1ccc(-c2cc3c(N4CCN(C(=O)N[C@@H](C)c5cccc(Cl)c5)C(C)(C)C4)ncnc3[nH]2)cn1 [P-0001, N-[(1S)-1-(3-chlorophenyl)ethyl]-2,2-dimethyl-4-[6-(6-methyl-3-pyridyl)-7H-pyrrolo[2,3-d]pyrimidin-4-yl]piperazine-1-carboxamide]	< 10 µM
Cc1ccc(-c2cc3c(N4CCN(C(=O)N[C@@H](C)c5cccc(OC(F)F)c5)C(C)(C)C4)ncnc3[nH]2)cn1 [P-0002, N-[(1S)-1-[3-(difluoromethoxy)phenyl]ethyl]-2,2-dimethyl-4-[6-(6-methyl-3-pyridyl)-7H-pyrrolo[2,3-d]pyrimidin-4-yl]piperazine-1-carboxamide]	< 10 µM
COc1cccc([C@H](C)NC(=O)N2CCN(c3ncnc4[nH]c(C)cc34)CC2)c1 [P-0003, N-[(1S)-1-(3-methoxyphenyl)ethyl]-4-(6-methyl-7H-pyrrolo[2,3-d]pyrimidin-4-yl)piperazine-1-carboxamide]	< 10 µM
COc1cc([C@H](C)NC(=O)N2CCN(c3ncnc4[nH]c(-c5ccc(F)cc5)cc34)C[C@H]2C)ccc1F [P-0004, (2R)-N-[(1S)-1-(4-fluoro-3-methoxy-phenyl)ethyl]-4-[6-(4-fluorophenyl)-7H-pyrrolo[2,3-d]pyrimidin-4-yl]-2-methyl-piperazine-1-carboxamide]	< 10 µM
C[C@H](NC(=O)N1CCN(c2ncnc3[nH]c(-c4ccc(F)cc4)cc23)CC1(C)C)c1cccc(F)c1 [P-0005, N-[(1S)-1-(3-fluorophenyl)ethyl]-4-[6-(4-fluorophenyl)-7H-pyrrolo[2,3-d]pyrimidin-4-yl]-2,2-dimethyl-piperazine-1-carboxamide]	< 10 µM
Cc1ccc(-c2cc3c(N4CCN(C(=O)N[C@@H](C)c5cccc(F)c5)C(C)(C)C4)ncnc3[nH]2)cn1 [P-0007, N-[(1S)-1-(3-fluorophenyl)ethyl]-2,2-dimethyl-4-[6-(6-methyl-3-pyridyl)-7H-pyrrolo[2,3-d]pyrimidin-4-yl]piperazine-1-carboxamide]	< 10 µM
C[C@H](NC(=O)N1CCN(c2ncnc3[nH]c(-c4ccc(F)cc4)cc23)CC1(C)C)c1cccc(Cl)c1 [P-0008, N-[(1S)-1-(3-chlorophenyl)ethyl]-4-[6-(4-fluorophenyl)-7H-pyrrolo[2,3-d]pyrimidin-4-yl]-2,2-dimethyl-piperazine-1-carboxamide]	< 10 µM
COc1cccc([C@H](C)NC(=O)N2CCN(c3ncnc4[nH]c(-c5ccnc(OC)c5)cc34)CC2(C)C)c1 [P-0009, N-[(1S)-1-(3-methoxyphenyl)ethyl]-4-[6-(2-methoxy-4-pyridyl)-7H-pyrrolo[2,3-d]pyrimidin-4-yl]-2,2-dimethyl-piperazine-1-carboxamide]	< 10 µM
Cn1cc(-c2cc3c(N4CCN(c5nc6ccccc6[nH]5)CC4)ncnc3[nH]2)cn1 [P-0010, 4-[4-(1H-benzimidazol-2-yl)piperazin-1-yl]-6-(1-methylpyrazol-4-yl)-7H-pyrrolo[2,3-d]pyrimidine]	< 10 µM
Fc1ccc(-c2cc3c(N4CCN(c5nc6ccccc6[nH]5)CC4)ncnc3[nH]2)cc1 [P-0011, 4-[4-(1H-benzimidazol-2-yl)piperazin-1-yl]-6-(4-fluorophenyl)-7H-pyrrolo[2,3-d]pyrimidine]	< 10 µM
COc1cc(-c2cc3c(N4CCN(C(=O)N[C@@H](C)c5cccc(OC(F)F)c5)C(C)(C)C4)ncnc3[nH]2)ccn1 [P-0012, N-[(1S)-1-[3-(difluoromethoxy)phenyl]ethyl]-4-[6-(2-methoxy-4-pyridyl)-7H-pyrrolo[2,3-d]pyrimidin-4-yl]-2,2-dimethyl-piperazine-1-carboxamide]	< 10 µM
Cc1ccc(-c2cc3c(N4CCN(c5nc6ccccc6[nH]5)CC4)ncnc3[nH]2)cn1 [P-0013, 4-[4-(1H-benzimidazol-2-yl)piperazin-1-yl]-6-(6-methyl-3-pyridyl)-7H-pyrrolo[2,3-d]pyrimidine]	< 10 µM
C[C@H](NC(=O)N1CCN(c2ncnc3[nH]c(-c4ccc(F)cc4)cc23)C[C@H]1C)c1cccc(OC(F)F)c1 [P-0014, (2R)-N-[(1S)-1-[3-(difluoromethoxy)phenyl]ethyl]-4-[6-(4-fluorophenyl)-7H-pyrrolo[2,3-d]pyrimidin-4-yl]-2-methyl-piperazine-1-carboxamide]	< 10 µM
[2H]C([2H])([2H])Oc1cccc([C@H](C)NC(=O)N2CCN(c3ncnc4[nH]c(-c5ccc(F)cc5)cc34)CC2)c1 [P-0015, 4-[6-(4-fluorophenyl)-7H-pyrrolo[2,3-d]pyrimidin-4-yl]-N-[(1S)-1-[3-(trideuteriomethoxy)phenyl]ethyl]piperazine-1-carboxamide]	< 10 µM
C[C@H](NC(=O)N1CCN(c2ncnc3[nH]c(-c4ccc(F)cc4)cc23)CC1)c1cccc(N(C)C)c1 [P-0016, N-[(1S)-1-[3-(dimethylamino)phenyl]ethyl]-4-[6-(4-fluorophenyl)-7H-pyrrolo[2,3-d]pyrimidin-4-yl]piperazine-1-carboxamide]	< 10 µM
CC(C)(C)Oc1ccc(NC(=O)N2CCN(c3ncnc4[nH]c(-c5ccc(Cl)cc5)cc34)CC2)cc1 [P-0017, N-(4-tert-butoxyphenyl)-4-[6-(4-chlorophenyl)-7H-pyrrolo[2,3-d]pyrimidin-4-yl]piperazine-1-carboxamide]	< 10 µM
COc1ccc([C@H](C)NC(=O)N2CCN(c3ncnc4[nH]c(-c5ccc(F)cc5)cc34)C[C@H]2C)cc1 [P-0018, (2R)-4-[6-(4-fluorophenyl)-7H-pyrrolo[2,3-d]pyrimidin-4-yl]-N-[(1S)-1-(4-methoxyphenyl)ethyl]-2-methyl-piperazine-1-carboxamide]	< 10 µM
COc1ccc([C@@H](C)NC(=O)N2CCN(c3ncnc4[nH]c(-c5ccc(Cl)cc5)cc34)C[C@H]2C)cc1 [P-0019, (2R)-4-[6-(4-chlorophenyl)-7H-pyrrolo[2,3-d]pyrimidin-4-yl]-N-[(1R)-1-(4-methoxyphenyl)ethyl]-2-methyl-piperazine-1-carboxamide]	< 10 µM
O=S(=O)(NN1CCN(c2ncnc3[nH]c(-c4ccc(F)cc4)cc23)CC1)c1ccc(OC(F)(F)F)cc1 [P-0026, N-[4-[6-(4-fluorophenyl)-7H-pyrrolo[2,3-d]pyrimidin-4-yl]piperazin-1-yl]-4-(trifluoromethoxy)benzenesulfonamide]	< 10 µM
C[C@H](NC(=O)N1CCN(c2ncnc3[nH]c(-c4ccc(F)cc4)cc23)CC1)c1cccc(Cl)c1 [P-0027, N-[(1S)-1-(3-chlorophenyl)ethyl]-4-[6-(4-fluorophenyl)-7H-pyrrolo[2,3-d]pyrimidin-4-yl]piperazine-1-carboxamide]	< 10 µM
COc1cccc([C@H](C)NC(=O)N2CCN(c3ncnc4[nH]c(-c5ccc(F)cc5)cc34)C[C@H]2C)c1 [P-0028, (R)-4-[6-(4-Fluoro-phenyl)-7H-pyrrolo[2,3-d]pyrimidin-4-yl]-2-methyl-piperazine-1-carboxylic acid [(S)-1-(3-methoxy-phenyl)-ethyl]-amide]	< 10 µM
C[C@H](NC(=O)N1CCN(c2ncnc3[nH]c(-c4ccc(F)cc4)cc23)C[C@H]1C)c1ccc(Cl)cc1 [P-0029, (2R)-N-[(1S)-1-(4-chlorophenyl)ethyl]-4-[6-(4-fluorophenyl)-7H-pyrrolo[2,3-d]pyrimidin-4-yl]-2-methyl-piperazine-1-carboxamide]	< 10 µM
C[C@H](NC(=O)N1CCN(c2ncnc3[nH]c(-c4ccc(F)cc4)cc23)C[C@H]1C)c1ccc(F)cc1 [P-0030, (2R)-N-[(1S)-1-(4-fluorophenyl)ethyl]-4-[6-(4-fluorophenyl)-7H-pyrrolo[2,3-d]pyrimidin-4-yl]-2-methyl-piperazine-1-carboxamide]	< 10 µM
COc1ccc([C@@H](C)NC(=O)N2CCN(c3ncnc4[nH]c(-c5ccc(F)cc5)cc34)C[C@H]2C)cc1 [P-0031, (2R)-4-[6-(4-fluorophenyl)-7H-pyrrolo[2,3-d]pyrimidin-4-yl]-N-[(1R)-1-(4-methoxyphenyl)ethyl]-2-methyl-piperazine-1-carboxamide]	< 10 µM
COc1cccc([C@@H](C)NC(=O)N2CCN(c3ncnc4[nH]c(-c5ccc(F)cc5)cc34)C[C@H]2C)c1 [P-0032, (2R)-4-[6-(4-fluorophenyl)-7H-pyrrolo[2,3-d]pyrimidin-4-yl]-N-[(1R)-1-(3-methoxyphenyl)ethyl]-2-methyl-piperazine-1-carboxamide]	< 10 µM
C[C@H](NC(=O)N1CCN(c2ncnc3[nH]c(-c4ccc(F)cc4)cc23)CC1)c1cccc(C(F)(F)F)c1 [P-0033, 4-[6-(4-fluorophenyl)-7H-pyrrolo[2,3-d]pyrimidin-4-yl]-N-[(1S)-1-[3-(trifluoromethyl)phenyl]ethyl]piperazine-1-carboxamide]	< 10 µM
C[C@@H]1CN(c2ncnc3[nH]c(-c4ccc(F)cc4)cc23)CCN1C(=O)N[C@H](C)c1ccc(F)cc1 [P-0034, (2R)-N-[(1R)-1-(4-fluorophenyl)ethyl]-4-[6-(4-fluorophenyl)-7H-pyrrolo[2,3-d]pyrimidin-4-yl]-2-methyl-piperazine-1-carboxamide]	< 10 µM
C[C@@H]1CN(c2ncnc3[nH]c(-c4ccc(F)cc4)cc23)CCN1C(=O)N[C@H](C)c1ccc(Cl)cc1 [P-0035, (2R)-N-[(1R)-1-(4-chlorophenyl)ethyl]-4-[6-(4-fluorophenyl)-7H-pyrrolo[2,3-d]pyrimidin-4-yl]-2-methyl-piperazine-1-carboxamide]	< 10 µM
C[C@H](NC(=O)N1CCN(c2ncnc3[nH]c(-c4ccc(F)cc4)cc23)CC1)c1cccc(F)c1 [P-0036, N-[(1S)-1-(3-fluorophenyl)ethyl]-4-[6-(4-fluorophenyl)-7H-pyrrolo[2,3-d]pyrimidin-4-yl]piperazine-1-carboxamide]	< 10 µM
O=C(NCc1cccc(OC(F)F)c1)N1CCN(c2ncnc3[nH]c(-c4ccc(Cl)cc4)cc23)CC1 [P-0037, 4-[6-(4-chlorophenyl)-7H-pyrrolo[2,3-d]pyrimidin-4-yl]-N-[[3-(difluoromethoxy)phenyl]methyl]piperazine-1-carboxamide]	< 10 µM
